Results are given in words; binding and its absence hold for the method and conditions named. Some results given as binding are weak or reduced against the parent protein; the word gives no strength.

Protein sequences, listed by entry. Tags and fused reporters are not part of them. Lines headed by an entry give the natural chain unless they say otherwise; changes in a name come on top.
UniProt Q9NZD1: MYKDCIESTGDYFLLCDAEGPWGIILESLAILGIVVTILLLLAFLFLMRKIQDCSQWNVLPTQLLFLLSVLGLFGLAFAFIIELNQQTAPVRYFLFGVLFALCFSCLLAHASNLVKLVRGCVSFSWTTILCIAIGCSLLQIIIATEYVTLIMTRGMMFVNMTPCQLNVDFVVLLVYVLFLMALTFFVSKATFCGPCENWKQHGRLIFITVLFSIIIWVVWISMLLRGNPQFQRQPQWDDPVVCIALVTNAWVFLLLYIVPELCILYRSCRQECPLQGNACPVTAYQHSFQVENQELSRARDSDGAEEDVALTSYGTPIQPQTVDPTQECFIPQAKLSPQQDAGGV

For assay [1], the target named is T1, GPRC5D peptide stretch 10GDYFLLCD17 (N-term) (human).
T1 sequence (peptide): GDYFLLCD
Put plainly: Pepscan ELISA on structurally constrained peptide arrays, high stringency, 1 ug/ml. A general note: An ELISA detects its analyte on a solid surface through an enzyme-linked reagent.

Assay [2] has as its target T2, GPRC5D peptide stretch 227…237 (ECL3) (human).
T2 sequence (peptide): GNPQFQRQPQW
The description is as above.

For assay [3], the target named is human GPRC5D having the amino acid sequence set forth in SEQ ID NO: 97 (target protein of the epitope mapping; also the reagent for CAR detection) (human) (UniProt Q9NZD1). Put plainly: flow cytometry of CAR-transduced human T cells. (In general: In flow cytometry, cells or beads pass a laser one at a time.)

B1: ET150-18 mIgG1 (antibody, V domains shown)
VH: EVQLVESGGGLIQPGGSLRLSCAASGFTFSNYAMNWVRQAPGKGLEWVSTINGRGSSTIYADSVKGRFTISRDNSKNTLYLQMNSLRAEDTATYYCARYISRGLGDSWGQGTLVTV
VL: QSVVTQPPSMSAAPGQQVTISCSGGNSNIERNYVSWYLQLPGTAPKLVIFDNDRRPSGIPDRFSGSKSGTSATLGITGLQTGDEADYYCGTWDSSLRGWVFGGGTKLTVLG
Take B1: the binding result in assay [1] and in assay [2] was “binds” throughout.

B2: GPRC5D-targeted 28z CAR18 (GRPC5D 28z CAR18), expressed on human T cells (protein)
chain: QSVVTQPPSMSAAPGQQVTISCSGGNSNIERNYVSWYLQLPGTAPKLVIFDNDRRPSGIPDRFSGSKSGTSATLGITGLQTGDEADYYCGTWDSSLRGWVFGGGTKLTVLGSRGGGGSGGGGSGGGGSLEMAEVQLVESGGGLIQPGGSLRLSCAASGFTFSNYAMNWVRQAPGKGLEWVSTINGRGSSTIYADSVKGRFTISRDNSKNTLYLQMNSLRAEDTATYYCARYISRGLGDSWGQGTLVTVIEVMYPPPYLDNEKSNGTIIHVKGKHLCPSPLFPGPSKPFWVLVVVGGVLACYSLLVTVAFIIFWVRSKRSRLLHSDYMNMTPRRPGPTRKHYQPYAPPRDFAAYRSRVKFSRSADAPAYQQGQNQLYNELNLGRREEYDVLDKRRGRDPEMGGKPRRKNPQEGLYNELQKDKMAEAYSEIGMKGERRRGKGHDGLYQGLSTATKDTYDALHMQALPPR
Turning to B2, the binding entry in assay [3] is on record as “binds”.
